PMC8849481
Results are given in words; binding and its absence hold for the method and conditions named. In cells and extracts the contact can be indirect. Some binding calls cover weakened binding; strength is not graded here. Tags and fused reporters may be left off the sequences shown.

By UniProt entry, the sequences of proteins in these tests, tags left out.
UniProt Q13283: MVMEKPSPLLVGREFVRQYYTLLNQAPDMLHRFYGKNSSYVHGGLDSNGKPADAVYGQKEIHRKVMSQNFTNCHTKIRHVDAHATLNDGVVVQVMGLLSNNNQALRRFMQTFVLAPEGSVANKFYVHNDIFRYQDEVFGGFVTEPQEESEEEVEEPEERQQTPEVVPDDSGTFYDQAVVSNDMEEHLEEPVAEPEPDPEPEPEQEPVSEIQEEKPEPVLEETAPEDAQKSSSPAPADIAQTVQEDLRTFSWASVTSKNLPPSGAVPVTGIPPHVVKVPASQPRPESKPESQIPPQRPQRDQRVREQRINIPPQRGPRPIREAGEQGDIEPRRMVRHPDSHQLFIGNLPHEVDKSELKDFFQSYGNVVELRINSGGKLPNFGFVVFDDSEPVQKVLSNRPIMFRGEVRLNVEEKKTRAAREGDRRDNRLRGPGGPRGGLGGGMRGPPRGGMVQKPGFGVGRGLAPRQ

T1: MxA, Flag-tagged (human) (UniProt P20591)
T1 sequence: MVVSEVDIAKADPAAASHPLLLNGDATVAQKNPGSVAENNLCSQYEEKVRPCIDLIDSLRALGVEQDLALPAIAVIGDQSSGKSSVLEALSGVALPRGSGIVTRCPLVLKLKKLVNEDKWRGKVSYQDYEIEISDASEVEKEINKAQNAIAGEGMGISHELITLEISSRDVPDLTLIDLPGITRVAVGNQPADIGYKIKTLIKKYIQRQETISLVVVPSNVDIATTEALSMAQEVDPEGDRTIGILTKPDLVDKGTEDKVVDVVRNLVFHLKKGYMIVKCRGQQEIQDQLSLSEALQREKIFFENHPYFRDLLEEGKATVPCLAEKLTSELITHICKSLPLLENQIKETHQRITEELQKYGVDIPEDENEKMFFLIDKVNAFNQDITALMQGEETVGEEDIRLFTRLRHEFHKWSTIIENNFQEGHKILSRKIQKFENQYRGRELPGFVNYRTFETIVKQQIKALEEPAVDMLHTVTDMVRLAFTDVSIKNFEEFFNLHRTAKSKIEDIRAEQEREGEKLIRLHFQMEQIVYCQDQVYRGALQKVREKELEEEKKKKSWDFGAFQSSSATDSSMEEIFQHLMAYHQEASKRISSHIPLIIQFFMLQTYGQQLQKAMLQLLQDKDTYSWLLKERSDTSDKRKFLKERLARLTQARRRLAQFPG

T2: myxovirus resistance protein B (MxB), Flag-tagged (human) (UniProt P20592)
T2 sequence: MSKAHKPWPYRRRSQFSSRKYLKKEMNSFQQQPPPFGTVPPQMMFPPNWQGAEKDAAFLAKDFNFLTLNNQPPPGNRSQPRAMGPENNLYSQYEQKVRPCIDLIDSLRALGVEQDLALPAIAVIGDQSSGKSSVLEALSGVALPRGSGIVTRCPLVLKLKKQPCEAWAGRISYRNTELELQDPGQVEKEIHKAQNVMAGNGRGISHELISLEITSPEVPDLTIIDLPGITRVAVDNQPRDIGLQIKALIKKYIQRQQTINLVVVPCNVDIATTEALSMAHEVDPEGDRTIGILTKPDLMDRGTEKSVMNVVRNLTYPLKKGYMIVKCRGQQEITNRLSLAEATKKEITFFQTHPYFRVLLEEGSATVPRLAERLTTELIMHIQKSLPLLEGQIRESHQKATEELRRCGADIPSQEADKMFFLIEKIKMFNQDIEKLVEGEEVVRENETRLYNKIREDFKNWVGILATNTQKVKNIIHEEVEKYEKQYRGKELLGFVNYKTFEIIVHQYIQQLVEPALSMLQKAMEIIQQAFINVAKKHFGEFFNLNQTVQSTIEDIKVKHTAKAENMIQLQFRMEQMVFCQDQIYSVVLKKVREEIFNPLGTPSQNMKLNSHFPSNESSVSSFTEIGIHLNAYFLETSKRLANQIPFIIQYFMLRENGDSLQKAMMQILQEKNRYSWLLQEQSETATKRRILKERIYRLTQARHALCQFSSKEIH


How the values were obtained:
MxA, Flag-tagged (human) = target: T1, MxA, Flag-tagged (human); assay: co-IP; anti-Flag M2 affinity gel with 1 mg lysate of transfected HEK293T cells in RIPA buffer (0.1% SDS, 1% Triton X-100, 1% sodium deoxycholate, 150 mM NaCl, 10 mM Tris pH 7.5, 1 mM EDTA), overnight at 4°C, three washes, Western blot; one panel (Fig 2G) with or without RNase A
[1] = target: T2, myxovirus resistance protein B (MxB), Flag-tagged (human); assay: as above

| binding (MxA, Flag-tagged (human)) | binding [1] | Molecule |
| --- | --- | --- |
| no binding | binds | G3BP1 (from UniProt Q13283 1-466) |
| no binding | binds | TIA1 (protein, UniProt P31483 1-386) MEDEMPKTLYVGNLSRDVTEALILQLFSQIGPCKNCKMIMDTAGNDPYCFVEFHEHRHAAAALAAMNGRKIMGKEVKVNWATTPSSQKKDTSSSTVVSTQRSQDHFHVFVGDLSPEITTEDIKAAFAPFGRISDARVVKDMATGKSKGYGFVSFFNKWDAENAIQQMGGQWLGGRQIRTNWATRKPPAPKSTYESNTKQLSYDEVVNQSSPSNCTVYCGGVTSGLTEQLMRQTFSPFGQIMEIRVFPDKGYSFVRFNSHESAAHAIVSVNGTTIEGHVVKCYWGKETLDMINPVQQQNQIGYPQPYGQWGQWYGNAQQIGQYMPNGWQVPAYGMYGQAWNQQGFNQTQSSAPWMGPNYGVQPPQGQNGSMLPNQPSGYRVAGYETQ |
